Numbering of substitutions follows the chain as printed. In names and notes the source's numbering stands. These are yes or no findings as the source states them, for the method shown. Some binding calls cover weakened binding; strength is not graded here. For part of these data: Sequences can lack the tags named with a protein. Each block holds one binder with its values, some of them ahead of it.
Columns and labels:
[1] = molecular target: HSPB5-ACD (alpha-crystallin domain of HSPB5, residues 64-152) (human) (UniProt P02511); experiment: 1H-15N HSQC NMR; 200 μM ACD, pH 6.5, 22°C, NMR buffer; populations of dimer and monomer peaks; dimer to monomers; both purified
[2] = molecular target: HSPB5-ACD (alpha-crystallin domain of HSPB5, residues 64-152) (human) (UniProt P02511); experiment: 1H-15N HSQC NMR; 200 μM ACD, pH 7.5, 22°C, NMR buffer; populations of dimer and monomer peaks; dimer to monomers; both purified
[3] = molecular target: HSPB5-ACD (alpha-crystallin domain of HSPB5, residues 64-152) (human) (UniProt P02511); experiment: NMR solution structure; pH 7.5, 22°C; NOEs, RDCs and chemical shifts, RosettaOligomer; 50 mM sodium phosphate, 100 mM NaCl, 0.1 mM EDTA; both purified
[4] = molecular target: HSPB5-ACD with His-101 mutated to Gln (human) (UniProt P02511); experiment: 1H-15N HSQC NMR; data not shown; pH dependence of the spectra of His-to-Gln mutant ACDs; both purified
[5] = molecular target: HSPB5-ACD with His-119 mutated to Gln (human) (UniProt P02511); experiment: as above
[6] = molecular target: HSPB5-ACD with His-111 mutated to Gln (human) (UniProt P02511); experiment: as above
[7] = molecular target: H104K-ACD (HSPB5-ACD with His-104 replaced by Lys) (human) (UniProt P02511); experiment: 1H-15N HSQC NMR; 200 μM ACD, pH 6.5, 22°C, NMR buffer; populations of dimer and monomer peaks; dimer to monomers; both purified
[8] = molecular target: H104K-ACD (HSPB5-ACD with His-104 replaced by Lys) (human) (UniProt P02511); experiment: condition: >1 mM (samples containing 200 μM protein); 1H-15N HSQC NMR; 200 μM ACD, pH 7.5, 22°C, NMR buffer; populations of dimer and monomer peaks; dimer to monomers; both purified
[9] = molecular target: HSPB5-ACD with His-83 mutated to Gln (human) (UniProt P02511); experiment: 1H-15N HSQC NMR; data not shown; pH dependence of the spectra of His-to-Gln mutant ACDs; both purified

binding [4]: binds
B2: HSPB5-ACD with His-101 mutated to Gln (domain or fragment, UniProt P02511 64-152)
chain: GLSEMRLEKDRFSVNLDVKHFSPEELKVKVLGDVIEVQGKHEERQDEHGFISREFHRKYRIPADVDPLTITSSLSSDGVLTVNGPRKQV

binding [7]: no binding | binding [8]: no binding
B5: H104K-ACD (HSPB5-ACD with His-104 replaced by Lys) (domain or fragment, human, UniProt P02511 64-152, looked up)
chain: B2 chain with Q38H, H41K
notes: HSPB5 (alphaB-crystallin), human, alpha-crystallin domain, residues 64-152, with H104K; source: growth and purification similar to that of wild-type proteins (Jehle et al., 2009)

Further lines, the binder ahead of its results:

B1: HSPB5-ACD (alpha-crystallin domain of HSPB5, residues 64-152) (domain or fragment, human, UniProt P02511 64-152, looked up)
chain: B2 chain with Q38H
notes: HSPB5 (alphaB-crystallin), human, alpha-crystallin domain, residues 64-152; 15N- or 13C,15N-labelled for the NMR experiments; also called WT-ACD; WT-HSPB5-ACD; source: expressed and purified as described previously (Jehle et al., 2009)
binding [1]: binds | binding [2]: binds | binding [3]: binds

B3: HSPB5-ACD with His-119 mutated to Gln (domain or fragment, UniProt P02511 64-152)
chain: B2 chain with Q38H, H56Q
binding [5]: binds

B4: HSPB5-ACD with His-111 mutated to Gln (domain or fragment, UniProt P02511 64-152)
chain: B2 chain with Q38H, H48Q
binding [6]: binds

B6: HSPB5-ACD with His-83 mutated to Gln (domain or fragment, UniProt P02511 64-152)
chain: B2 chain with H20Q, Q38H
binding [9]: binds

Source: article PMC4456606, “A conserved histidine modulates HSPB5 structure to trigger chaperone activity in response to stress-related acidosis” (eLife, 2015)
